Measurements from article PMC4109312.
No constants are given. Whether binding was seen depends on the method and setting. In cells and extracts the contact can be indirect. Binding calls can cover weak binding; strength is not graded here.

The chains behind the UniProt entries cited, without tags or fusion partners. Where a name states a change or a piece, a line headed by the entry shows the natural chain unless it says otherwise. Residues count along the entry.
UniProt P01009: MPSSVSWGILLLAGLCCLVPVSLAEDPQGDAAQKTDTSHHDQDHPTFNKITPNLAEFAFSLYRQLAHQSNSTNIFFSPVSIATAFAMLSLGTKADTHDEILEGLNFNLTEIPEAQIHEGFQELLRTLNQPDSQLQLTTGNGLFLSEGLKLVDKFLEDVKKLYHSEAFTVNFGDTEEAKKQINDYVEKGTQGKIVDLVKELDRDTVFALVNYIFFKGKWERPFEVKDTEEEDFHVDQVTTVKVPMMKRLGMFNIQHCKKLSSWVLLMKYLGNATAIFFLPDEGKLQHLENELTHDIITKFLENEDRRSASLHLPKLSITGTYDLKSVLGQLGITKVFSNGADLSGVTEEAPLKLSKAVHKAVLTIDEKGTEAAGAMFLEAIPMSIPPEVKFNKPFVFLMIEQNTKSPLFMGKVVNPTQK
UniProt P11021, residues 19-654: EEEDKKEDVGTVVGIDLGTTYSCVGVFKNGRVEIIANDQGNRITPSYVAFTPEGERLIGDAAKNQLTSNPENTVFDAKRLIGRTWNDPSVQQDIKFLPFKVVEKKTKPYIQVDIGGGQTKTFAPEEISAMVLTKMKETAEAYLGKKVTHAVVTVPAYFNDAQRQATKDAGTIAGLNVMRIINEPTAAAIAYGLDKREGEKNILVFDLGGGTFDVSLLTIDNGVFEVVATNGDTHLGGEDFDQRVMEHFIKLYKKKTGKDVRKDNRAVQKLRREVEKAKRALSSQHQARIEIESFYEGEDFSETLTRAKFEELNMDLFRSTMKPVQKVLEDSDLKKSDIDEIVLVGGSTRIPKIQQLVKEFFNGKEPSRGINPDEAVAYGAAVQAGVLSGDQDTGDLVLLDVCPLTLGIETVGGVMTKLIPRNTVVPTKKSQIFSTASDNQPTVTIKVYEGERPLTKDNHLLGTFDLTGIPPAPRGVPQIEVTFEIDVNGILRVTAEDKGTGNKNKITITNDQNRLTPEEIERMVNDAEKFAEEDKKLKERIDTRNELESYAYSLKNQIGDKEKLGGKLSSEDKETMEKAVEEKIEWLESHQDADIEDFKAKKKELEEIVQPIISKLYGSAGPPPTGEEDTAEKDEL

Target: null Hong Kong mutant alpha 1 anti-trypsin (NHK-A1AT), C-terminally tagged with 3XFLAG (UniProt P01009)
Test: co-IP; anti-FLAG immunoprecipitation (Sigma A2220) of FLAG-tagged NHK-A1AT from pulse-chase metabolically labeled HeLa cells co-expressing ER-ChaC1^CtoS or ER-ChaC1^CtoS;E116Q; SDS-PAGE (reducing or non-reducing) and autoradiography

- binding: binds
Substance: ER-chaperone BiP (from UniProt P11021 19-654)
